Measurements from PMC11421798, “Subfunctionalization of NRC3 altered the genetic structure of the Nicotiana NRC network” (PLOS Genetics, 2024).

T1: N. benthamiana NRC3 (NbNRC3c), myc-tagged (N. benthamiana)
T1 sequence: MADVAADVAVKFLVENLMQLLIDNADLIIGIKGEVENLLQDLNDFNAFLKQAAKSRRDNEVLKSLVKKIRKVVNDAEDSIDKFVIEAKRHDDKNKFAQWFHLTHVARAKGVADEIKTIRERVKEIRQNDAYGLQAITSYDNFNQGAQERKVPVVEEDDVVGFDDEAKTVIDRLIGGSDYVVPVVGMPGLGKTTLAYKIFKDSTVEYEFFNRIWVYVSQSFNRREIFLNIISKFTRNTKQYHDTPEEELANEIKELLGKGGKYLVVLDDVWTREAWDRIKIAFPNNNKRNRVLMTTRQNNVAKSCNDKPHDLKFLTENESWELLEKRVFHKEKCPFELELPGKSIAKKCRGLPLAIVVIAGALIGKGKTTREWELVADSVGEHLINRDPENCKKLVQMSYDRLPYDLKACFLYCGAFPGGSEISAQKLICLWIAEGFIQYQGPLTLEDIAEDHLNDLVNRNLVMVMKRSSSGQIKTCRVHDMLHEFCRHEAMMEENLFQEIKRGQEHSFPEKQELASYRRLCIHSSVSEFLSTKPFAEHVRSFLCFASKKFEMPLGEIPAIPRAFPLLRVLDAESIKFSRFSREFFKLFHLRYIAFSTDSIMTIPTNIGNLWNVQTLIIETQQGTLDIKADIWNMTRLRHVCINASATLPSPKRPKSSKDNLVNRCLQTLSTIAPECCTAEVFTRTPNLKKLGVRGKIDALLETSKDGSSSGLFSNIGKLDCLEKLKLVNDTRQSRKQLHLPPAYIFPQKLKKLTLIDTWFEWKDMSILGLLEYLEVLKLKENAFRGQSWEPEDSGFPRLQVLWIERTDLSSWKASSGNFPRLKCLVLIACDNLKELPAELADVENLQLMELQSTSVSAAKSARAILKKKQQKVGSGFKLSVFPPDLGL

T2: NRC3 variant … (NbNRC3c with six residues of SlNRC3a), myc-tagged (N. benthamiana)
T2 sequence: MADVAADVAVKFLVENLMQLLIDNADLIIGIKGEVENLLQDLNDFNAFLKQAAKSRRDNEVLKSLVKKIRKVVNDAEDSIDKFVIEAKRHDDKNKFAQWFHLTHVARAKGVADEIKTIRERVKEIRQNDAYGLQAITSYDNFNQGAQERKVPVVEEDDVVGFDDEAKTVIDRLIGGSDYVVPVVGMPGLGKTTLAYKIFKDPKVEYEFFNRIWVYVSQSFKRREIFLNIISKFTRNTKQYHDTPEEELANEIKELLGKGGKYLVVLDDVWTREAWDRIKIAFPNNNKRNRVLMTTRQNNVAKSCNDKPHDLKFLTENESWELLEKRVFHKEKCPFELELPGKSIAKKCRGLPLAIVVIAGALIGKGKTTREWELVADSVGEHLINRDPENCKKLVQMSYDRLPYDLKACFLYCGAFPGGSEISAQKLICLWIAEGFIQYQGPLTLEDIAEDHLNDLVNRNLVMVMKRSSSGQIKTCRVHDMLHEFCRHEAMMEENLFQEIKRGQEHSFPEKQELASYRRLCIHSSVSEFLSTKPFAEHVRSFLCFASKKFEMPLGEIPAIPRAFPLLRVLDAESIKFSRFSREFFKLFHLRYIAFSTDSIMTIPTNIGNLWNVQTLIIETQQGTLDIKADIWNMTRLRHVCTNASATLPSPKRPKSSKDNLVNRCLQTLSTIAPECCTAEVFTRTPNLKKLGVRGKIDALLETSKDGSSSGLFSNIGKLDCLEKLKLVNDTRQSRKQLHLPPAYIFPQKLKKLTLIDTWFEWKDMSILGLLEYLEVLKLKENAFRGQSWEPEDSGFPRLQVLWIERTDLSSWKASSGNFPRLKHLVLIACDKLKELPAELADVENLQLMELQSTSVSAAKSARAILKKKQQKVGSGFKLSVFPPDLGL

B1: N. benthamiana NRC3 (NbNRC3c), myc-tagged (protein, UniProt A0A5J6DCA3 1-888)
chain: MADVAADVAVKFLVENLMQLLIDNADLIIGIKGEVENLLQDLNDFNAFLKQAAKSRRDNEVLKSLVKKIRKVVNDAEDSIDKFVIEAKRHDDKNKFAQWFHLTHVARAKGVADEIKTIRERVKEIRQNDAYGLQAITSYDNFNQGAQERKVPVVEEDDVVGFDDEAKTVIDRLIGGSDYVVPVVGMPGLGKTTLAYKIFKDSTVEYEFFNRIWVYVSQSFNRREIFLNIISKFTRNTKQYHDTPEEELANEIKELLGKGGKYLVVLDDVWTREAWDRIKIAFPNNNKRNRVLMTTRQNNVAKSCNDKPHDLKFLTENESWELLEKRVFHKEKCPFELELPGKSIAKKCRGLPLAIVVIAGALIGKGKTTREWELVADSVGEHLINRDPENCKKLVQMSYDRLPYDLKACFLYCGAFPGGSEISAQKLICLWIAEGFIQYQGPLTLEDIAEDHLNDLVNRNLVMVMKRSSSGQIKTCRVHDMLHEFCRHEAMMEENLFQEIKRGQEHSFPEKQELASYRRLCIHSSVSEFLSTKPFAEHVRSFLCFASKKFEMPLGEIPAIPRAFPLLRVLDAESIKFSRFSREFFKLFHLRYIAFSTDSIMTIPTNIGNLWNVQTLIIETQQGTLDIKADIWNMTRLRHVCINASATLPSPKRPKSSKDNLVNRCLQTLSTIAPECCTAEVFTRTPNLKKLGVRGKIDALLETSKDGSSSGLFSNIGKLDCLEKLKLVNDTRQSRKQLHLPPAYIFPQKLKKLTLIDTWFEWKDMSILGLLEYLEVLKLKENAFRGQSWEPEDSGFPRLQVLWIERTDLSSWKASSGNFPRLKCLVLIACDNLKELPAELADVENLQLMELQSTSVSAAKSARAILKKKQQKVGSGFKLSVFPPDLGL
B2: NRC3 variant … (NbNRC3c with six residues of SlNRC3a), myc-tagged (protein, UniProt A0A5J6DCA3 1-888)
chain: MADVAADVAVKFLVENLMQLLIDNADLIIGIKGEVENLLQDLNDFNAFLKQAAKSRRDNEVLKSLVKKIRKVVNDAEDSIDKFVIEAKRHDDKNKFAQWFHLTHVARAKGVADEIKTIRERVKEIRQNDAYGLQAITSYDNFNQGAQERKVPVVEEDDVVGFDDEAKTVIDRLIGGSDYVVPVVGMPGLGKTTLAYKIFKDPKVEYEFFNRIWVYVSQSFKRREIFLNIISKFTRNTKQYHDTPEEELANEIKELLGKGGKYLVVLDDVWTREAWDRIKIAFPNNNKRNRVLMTTRQNNVAKSCNDKPHDLKFLTENESWELLEKRVFHKEKCPFELELPGKSIAKKCRGLPLAIVVIAGALIGKGKTTREWELVADSVGEHLINRDPENCKKLVQMSYDRLPYDLKACFLYCGAFPGGSEISAQKLICLWIAEGFIQYQGPLTLEDIAEDHLNDLVNRNLVMVMKRSSSGQIKTCRVHDMLHEFCRHEAMMEENLFQEIKRGQEHSFPEKQELASYRRLCIHSSVSEFLSTKPFAEHVRSFLCFASKKFEMPLGEIPAIPRAFPLLRVLDAESIKFSRFSREFFKLFHLRYIAFSTDSIMTIPTNIGNLWNVQTLIIETQQGTLDIKADIWNMTRLRHVCTNASATLPSPKRPKSSKDNLVNRCLQTLSTIAPECCTAEVFTRTPNLKKLGVRGKIDALLETSKDGSSSGLFSNIGKLDCLEKLKLVNDTRQSRKQLHLPPAYIFPQKLKKLTLIDTWFEWKDMSILGLLEYLEVLKLKENAFRGQSWEPEDSGFPRLQVLWIERTDLSSWKASSGNFPRLKHLVLIACDKLKELPAELADVENLQLMELQSTSVSAAKSARAILKKKQQKVGSGFKLSVFPPDLGL

Columns and labels:
[1] = molecular target: T1, N. benthamiana NRC3 (NbNRC3c), myc-tagged (N. benthamiana); assay: co-IP; RFP-Rpi-blb2 and NRC3s-myc co-expressed in N. benthamiana; leaves at 30 hpi; anti-c-myc beads, 4°C 3 h; five washes (10% glycerol, 25 mM Tris pH7.5, 1 mM EDTA, 150 mM NaCl, 0.2% IGEPAL); blots with α-RFP and α-myc
[2] = molecular target: T2, NRC3 variant … (NbNRC3c with six residues of SlNRC3a), myc-tagged (N. benthamiana); assay: as above
RFP-Rpi-blb2 = assay: co-IP; RFP-Rpi-blb2 and NRC3s-myc co-expressed in N. benthamiana with or without Flag-AVRblb2; leaves at 30 hpi; RFP-Trap magnetic agarose, 4°C 3 h; five washes (10% glycerol, 25 mM Tris pH7.5, 1 mM EDTA, 150 mM NaCl, 0.2% IGEPAL); blots with α-RFP and α-myc

Molecule	binding [1]	binding [2]	binding (RFP-Rpi-blb2)
RFP-Rpi-blb2	binds weakly	binds weakly	–
B1	–	–	binds weakly
B2	–	–	binds weakly

Results are given in words; binding and its absence hold for the method and conditions named. Binding seen in cells or lysates may run through a third protein. A result given as binding can be weak or reduced; the word gives no strength. Where a sequence is shown, tags or fusion partners need not be part of it.
